Laboratory results taken from PMC6881171, “A conserved ATP- and Scc2/4-dependent activity for cohesin in tethering DNA molecules” (Science Advances, 2019).
No constants are given. Whether binding was seen depends on the method and setting. Some binding calls cover weakened binding; strength is not graded here. Where a sequence is shown, tags or fusion partners need not be part of it. Blank lines part the entries; values can stand above or below the molecule they belong to.

By UniProt entry, the sequences of proteins in these tests, tags left out.
UniProt Q9UQE7: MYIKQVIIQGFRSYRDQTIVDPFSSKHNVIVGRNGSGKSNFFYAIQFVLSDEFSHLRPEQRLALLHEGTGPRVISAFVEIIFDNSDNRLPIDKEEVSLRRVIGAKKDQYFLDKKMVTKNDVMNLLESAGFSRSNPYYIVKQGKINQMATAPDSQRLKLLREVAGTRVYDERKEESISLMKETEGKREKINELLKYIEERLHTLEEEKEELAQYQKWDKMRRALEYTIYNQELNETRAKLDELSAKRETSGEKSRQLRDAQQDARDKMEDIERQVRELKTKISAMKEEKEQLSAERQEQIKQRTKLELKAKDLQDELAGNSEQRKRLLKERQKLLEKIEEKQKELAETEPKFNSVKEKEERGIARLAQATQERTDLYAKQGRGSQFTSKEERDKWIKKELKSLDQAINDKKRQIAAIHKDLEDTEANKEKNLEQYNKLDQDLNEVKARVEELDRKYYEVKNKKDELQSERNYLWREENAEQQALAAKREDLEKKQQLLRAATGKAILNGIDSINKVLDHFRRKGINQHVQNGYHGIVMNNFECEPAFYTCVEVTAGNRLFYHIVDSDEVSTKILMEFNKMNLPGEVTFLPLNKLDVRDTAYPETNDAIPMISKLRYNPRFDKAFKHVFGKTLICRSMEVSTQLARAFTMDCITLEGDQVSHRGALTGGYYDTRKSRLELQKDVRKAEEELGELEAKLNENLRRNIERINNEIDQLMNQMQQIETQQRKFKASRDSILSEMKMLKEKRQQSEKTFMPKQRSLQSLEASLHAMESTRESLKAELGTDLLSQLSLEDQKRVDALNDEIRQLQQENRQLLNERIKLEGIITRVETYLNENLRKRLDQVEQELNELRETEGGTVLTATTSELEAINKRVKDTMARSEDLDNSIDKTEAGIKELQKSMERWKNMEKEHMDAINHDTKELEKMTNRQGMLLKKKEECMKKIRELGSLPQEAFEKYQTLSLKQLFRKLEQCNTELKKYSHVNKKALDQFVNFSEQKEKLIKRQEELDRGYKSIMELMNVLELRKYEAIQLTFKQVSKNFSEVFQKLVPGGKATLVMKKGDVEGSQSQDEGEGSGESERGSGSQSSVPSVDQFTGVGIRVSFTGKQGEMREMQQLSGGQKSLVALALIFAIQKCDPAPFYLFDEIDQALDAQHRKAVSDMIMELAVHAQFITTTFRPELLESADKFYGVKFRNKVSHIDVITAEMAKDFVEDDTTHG

Assays:
[1] = target: T1, 10xHis-SA1 (human) (UniProt Q8WVM7); assay: co-purification (affinity and ion exchange chromatography); human subunits coexpressed in High Five insect cells; clarified lysate on HisTrap (10xHis on SA1), wash with 500 mM NaCl and 20 mM imidazole, eluted with 150 mM imidazole; tandem anion and cation exchange, eluted with 1 M NaCl; purity confirmed by gel electrophoresis and mass spectrometry
T1 sequence: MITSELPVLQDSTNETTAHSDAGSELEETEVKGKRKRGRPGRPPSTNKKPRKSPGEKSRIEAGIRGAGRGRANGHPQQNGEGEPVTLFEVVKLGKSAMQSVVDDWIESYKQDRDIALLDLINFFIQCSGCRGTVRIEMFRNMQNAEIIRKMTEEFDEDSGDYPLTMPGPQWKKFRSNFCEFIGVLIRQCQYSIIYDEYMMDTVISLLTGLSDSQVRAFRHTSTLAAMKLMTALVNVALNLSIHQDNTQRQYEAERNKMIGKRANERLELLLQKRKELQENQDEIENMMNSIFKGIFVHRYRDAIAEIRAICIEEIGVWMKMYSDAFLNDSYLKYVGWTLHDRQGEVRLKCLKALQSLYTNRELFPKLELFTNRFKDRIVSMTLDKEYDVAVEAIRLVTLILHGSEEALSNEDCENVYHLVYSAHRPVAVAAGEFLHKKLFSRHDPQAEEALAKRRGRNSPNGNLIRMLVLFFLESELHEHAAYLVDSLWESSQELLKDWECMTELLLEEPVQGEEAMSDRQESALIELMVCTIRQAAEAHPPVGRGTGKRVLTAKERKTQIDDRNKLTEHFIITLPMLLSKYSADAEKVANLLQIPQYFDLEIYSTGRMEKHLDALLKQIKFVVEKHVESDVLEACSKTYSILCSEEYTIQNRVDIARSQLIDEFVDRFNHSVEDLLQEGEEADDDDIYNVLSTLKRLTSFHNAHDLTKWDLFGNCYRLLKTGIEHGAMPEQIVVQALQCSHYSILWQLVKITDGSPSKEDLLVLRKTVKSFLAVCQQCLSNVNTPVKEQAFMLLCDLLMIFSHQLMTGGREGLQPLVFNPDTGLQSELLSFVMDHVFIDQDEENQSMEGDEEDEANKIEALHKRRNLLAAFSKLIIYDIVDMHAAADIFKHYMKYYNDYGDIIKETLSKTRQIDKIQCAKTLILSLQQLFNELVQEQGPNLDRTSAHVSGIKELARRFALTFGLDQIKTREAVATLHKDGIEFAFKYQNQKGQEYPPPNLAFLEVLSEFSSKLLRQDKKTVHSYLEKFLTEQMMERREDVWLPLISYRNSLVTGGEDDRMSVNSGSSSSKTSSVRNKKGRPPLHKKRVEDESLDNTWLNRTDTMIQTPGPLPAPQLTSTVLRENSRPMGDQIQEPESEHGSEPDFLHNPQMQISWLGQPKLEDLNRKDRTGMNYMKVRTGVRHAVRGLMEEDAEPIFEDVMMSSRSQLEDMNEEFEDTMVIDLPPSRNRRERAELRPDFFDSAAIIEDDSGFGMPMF

[2] = target: T2, Scc2 with 3xmyc and 3xStrepII tags (S. cerevisiae) (UniProt Q04002); assay: co-purification (affinity, heparin and gel filtration chromatography); subunits co-overexpressed in S. cerevisiae; clarified lysate on StrepTrap-HP (3xStrepII on Smc1 or Scc2), buffer A 25 mM Hepes pH 7.5, 200 mM NaCl, eluted with 5 mM desthiobiotin; HiTrap Heparin HP gradient 150 mM to 1 M NaCl; Superose 6 Increase in 300 mM NaCl; analysed by SDS-PAGE with Coomassie, Western blot and mass spectrometry
T2 sequence: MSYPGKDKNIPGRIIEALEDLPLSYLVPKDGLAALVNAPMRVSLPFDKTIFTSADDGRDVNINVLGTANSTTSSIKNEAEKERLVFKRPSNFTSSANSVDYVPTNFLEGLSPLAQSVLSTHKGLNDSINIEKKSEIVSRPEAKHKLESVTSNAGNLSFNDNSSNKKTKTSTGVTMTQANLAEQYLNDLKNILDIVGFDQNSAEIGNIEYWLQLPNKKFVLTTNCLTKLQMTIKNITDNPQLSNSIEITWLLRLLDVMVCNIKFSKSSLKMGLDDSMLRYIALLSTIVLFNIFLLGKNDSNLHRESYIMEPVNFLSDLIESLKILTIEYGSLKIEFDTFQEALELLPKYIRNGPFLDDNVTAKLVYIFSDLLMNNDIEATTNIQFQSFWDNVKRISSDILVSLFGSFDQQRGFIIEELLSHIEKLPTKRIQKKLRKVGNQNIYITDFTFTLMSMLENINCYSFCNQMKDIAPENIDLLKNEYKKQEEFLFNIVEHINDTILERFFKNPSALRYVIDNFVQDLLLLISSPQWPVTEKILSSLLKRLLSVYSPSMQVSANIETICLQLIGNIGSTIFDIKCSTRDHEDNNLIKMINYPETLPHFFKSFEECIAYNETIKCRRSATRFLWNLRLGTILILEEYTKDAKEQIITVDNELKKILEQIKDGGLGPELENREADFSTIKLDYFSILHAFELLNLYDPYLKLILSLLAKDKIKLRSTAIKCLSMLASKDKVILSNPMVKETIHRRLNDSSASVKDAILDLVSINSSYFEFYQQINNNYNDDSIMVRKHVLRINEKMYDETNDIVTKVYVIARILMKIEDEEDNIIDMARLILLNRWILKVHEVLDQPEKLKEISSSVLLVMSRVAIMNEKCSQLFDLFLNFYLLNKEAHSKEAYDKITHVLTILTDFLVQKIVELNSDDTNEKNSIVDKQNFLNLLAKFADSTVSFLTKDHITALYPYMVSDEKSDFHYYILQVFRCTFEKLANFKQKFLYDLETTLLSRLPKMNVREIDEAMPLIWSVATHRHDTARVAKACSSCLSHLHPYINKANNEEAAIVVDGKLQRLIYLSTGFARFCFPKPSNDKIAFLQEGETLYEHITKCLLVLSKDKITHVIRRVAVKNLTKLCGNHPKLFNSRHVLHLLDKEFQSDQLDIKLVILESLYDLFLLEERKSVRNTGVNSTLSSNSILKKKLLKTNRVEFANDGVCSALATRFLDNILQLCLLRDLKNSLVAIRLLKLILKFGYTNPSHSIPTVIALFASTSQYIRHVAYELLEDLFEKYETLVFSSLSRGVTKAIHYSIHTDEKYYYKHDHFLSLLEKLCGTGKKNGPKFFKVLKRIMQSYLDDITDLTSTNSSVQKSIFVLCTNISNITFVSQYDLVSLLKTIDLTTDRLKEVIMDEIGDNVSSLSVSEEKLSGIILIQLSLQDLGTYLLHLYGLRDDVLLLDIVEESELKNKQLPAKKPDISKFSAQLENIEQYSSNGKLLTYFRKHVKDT

- binding [1]: binds
Molecule: SMC3-FLAG (from UniProt Q9UQE7 1-1217)

- binding [1]: binds
B1: SMC1A (protein, UniProt Q14683 1-1233)
chain: MGFLKLIEIENFKSYKGRQIIGPFQRFTAIIGPNGSGKSNLMDAISFVLGEKTSNLRVKTLRDLIHGAPVGKPAANRAFVSMVYSEEGAEDRTFARVIVGGSSEYKINNKVVQLHEYSEELEKLGILIKARNFLVFQGAVESIAMKNPKERTALFEEISRSGELAQEYDKRKKEMVKAEEDTQFNYHRKKNIAAERKEAKQEKEEADRYQRLKDEVVRAQVQLQLFKLYHNEVEIEKLNKELASKNKEIEKDKKRMDKVEDELKEKKKELGKMMREQQQIEKEIKEKDSELNQKRPQYIKAKENTSHKIKKLEAAKKSLQNAQKHYKKRKGDMDELEKEMLSVEKARQEFEERMEEESQSQGRDLTLEENQVKKYHRLKEEASKRAATLAQELEKFNRDQKADQDRLDLEERKKVETEAKIKQKLREIEENQKRIEKLEEYITTSKQSLEEQKKLEGELTEEVEMAKRRIDEINKELNQVMEQLGDARIDRQESSRQQRKAEIMESIKRLYPGSVYGRLIDLCQPTQKKYQIAVTKVLGKNMDAIIVDSEKTGRDCIQYIKEQRGEPETFLPLDYLEVKPTDEKLRELKGAKLVIDVIRYEPPHIKKALQYACGNALVCDNVEDARRIAFGGHQRHKTVALDGTLFQKSGVISGGASDLKAKARRWDEKAVDKLKEKKERLTEELKEQMKAKRKEAELRQVQSQAHGLQMRLKYSQSDLEQTKTRHLALNLQEKSKLESELANFGPRINDIKRIIQSREREMKDLKEKMNQVEDEVFEEFCREIGVRNIREFEEEKVKRQNEIAKKRLEFENQKTRLGIQLDFEKNQLKEDQDKVHMWEQTVKKDENEIEKLKKEEQRHMKIIDETMAQLQDLKNQHLAKKSEVNDKNHEMEEIRKKLGGANKEMTHLQKEVTAIETKLEQKRSDRHNLLQACKMQDIKLPLSKGTMDDISQEEGSSQGEDSVSGSQRISSIYAREALIEIDYGDLCEDLKDAQAEEEIKQEMNTLQQKLNEQQSVLQRIAAPNMKAMEKLESVRDKFQETSDEFEAARKRAKKAKQAFEQIKKERFDRFNACFESVATNIDEIYKALSRNSSAQAFLGPENPEEPYLDGINYNCVAPGKRFRPMDNLSGGEKTVAALALLFAIHSYKPAPFFVLDEIDAALDNTNIGKVANYIKEQSTCNFQAIVISLKEEFYTKAESLIGVYPEQGDCVISKVLTFDLTKYPDANPNPNEQ

- binding [2]: binds
B2: Scc4 (protein, UniProt P40090 1-624)
chain: MENLGDKLSISQVYHLAQEYRDHAYSIANKIGSEEGLKQYYGLMNMSIQMFQLLKTKCTLSVLEDSKVTFEMVELLIQETYNFDLAELYISSLKERLQTHQSDTDLVEEIMRCEFLLLHDLPLMRDSKFHYKIALRNCNELVQYMVNLQDELYQNWASVFQYVGVMLCIKLKQHRRVKTSFHGLLSQCREKSQWKWFLNLCYVNYLLNERFPIPEDALQELRSTELHTVGPELYAWKLALEMVIQLCKDGNITDHLNEFKNFFDTNKQSLVTNEGKGCVIKIMPRIALKVELPMIFHYKELKNILLLLQSVSYIVNCYDEKGNFSRKFLPKVYSTTQKLIKNIAAGGVSMNELDSRIQTYKSILEFCEFYKVWEQTLLKGAVVTTESPKLGPSPGYVRLLQAMKVQFEGGGAVEEYTRLAQSGGTSSEVKMISLLNCYTVQAARVSRCSGDKQGELVEQCNKVWLQVEKLLQETDLQFNPIWECTVTILWLFSHFEPFSWNPLPCSDKQRAEYVSKLREFYSSNKFVAGEAVADNRFKLKKALLLQILVNYLGGRMLEHDLGEIYAISAKCFDMCRQQGGMRKVQYVIGIWHLMNCTVAMRGKDVALTNAKLEALVKQITSVKQ
